Test results: PubChem BioAssay AID504467 (National Center for Advancing Translational Sciences (NCATS), 2011)
The whole screen tested about 330,000 compounds, of which about 7,700 (2.3%) were called active. Inconclusive means that the source gave no clear call. Such entries were picked first, then a sample of the others. Calls come from the whole dose curve; as a rule, active = well fitted inhibition curve with a large enough effect; inconclusive = small, poorly fitted or top-dose-only effect, or effect the other way; inactive = flat fitted curve, though single readings scatter. Where the call is inconclusive, the potency comes from a doubtful curve fit.

Experiment: qHTS screen for small molecules that inhibit ELG1-dependent DNA repair in human embryonic kidney (HEK293T) cells expressing luciferase-tagged ELG1; note: nearly all actives have a fitted effect of over 55% in size
Settings: HEK293T ELG1-luciferase reporter, luminescence, 16 h, DNA damage induced by 5-fluorouridine; activity change, negative = inhibition: at 46.1 µM (top of the series)
How it was run: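 5-Fluorouridine DNA damage + compound/DMSO, 2,000 cells/well, 16 h, 37 °C/5% CO2. ONE-Glo, 30 min RT, luminescence. Readout = decrease in reporter signal.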
% is set by controls: 0 for no effect and ±100 for the full control effect; potency is the fitted concentration of half-maximal effect.

SMILES | Potency | activity change, negative = inhibition
NNC(=O)c1cccn(Cc2ccc(Cl)cc2Cl)c1=O | inconclusive: 25.9 µM [inhibitor, single point] | 
O=C(Nc1ccccn1)c1ccc(C(=O)c2ccccc2)cc1 | inconclusive: 7.3 µM [activator, partial curve] | 
COc1cccc(/C=N/NC(=O)c2cccs2)c1 | inconclusive: 10.3 µM [activator, partial curve] | 
COc1cccc(NC(=O)Nc2ccc3c(c2)nnn3C)c1 | inconclusive: 16.4 µM [activator, partial curve] | 
CCn1cnc2sc(C(=O)Oc3cccc(C)c3)c(C)c2c1=O | inconclusive: 16.4 µM [activator, partial curve, poor fit] | 
Cc1cccc(NC(=O)c2ccc(S(=O)(=O)N(C)c3ccccc3)cc2)n1 | active: 23.1 µM | 
CCOc1ccccc1Oc1cn[nH]c1-c1ccc(OC)cc1O | inconclusive: 16.4 µM [inhibitor, partial curve] | 
Cn1c(=O)n(C)c2cc(/C=N/NC(=O)c3ccc(Cl)cc3Cl)ccc21 | inconclusive: 14.6 µM [activator, single point] | 
CCCCCN1CSC(=S)N(Cc2ccccc2)C1 | inconclusive: 14.6 µM [inhibitor, partial curve, poor fit] | 
CC(C)c1ccc(N(CC(=O)NCc2cccnc2)S(=O)(=O)c2ccccc2)cc1 | inactive | 
CCNc1nc(NCC)nc(N/N=C/c2ccc(O)c(O)c2)n1 | inconclusive: 20.6 µM [activator, partial curve] | 
COc1ccccc1/C=N/NC(=O)CNC(=O)c1ccccc1 | inactive | 
Cc1ccc(NC(=O)Nc2ccc(Cl)cc2)c(Br)c1 | inconclusive: 20.6 µM [activator, partial curve] | 
CCN=c1scc(-c2ccc(F)cc2)n1/N=C/c1ccccn1 | inconclusive: 18.3 µM [activator, partial curve] | 
Cc1ccc(C(=C2C3C=CC2C2C(=O)NC(=O)C32)c2ccc(C)cc2)cc1 (stereo unspecified) | inactive | 
CSCCC(C(=O)N(C)CC(=O)Nc1cccc(F)c1)N1C(=O)c2ccccc2C1=O (stereo unspecified) | inactive | 
O=C(N/N=C/c1cc([N+](=O)[O-])c(N2CCOCC2)cc1N1CCOCC1)c1cccnc1 | inactive | 
CS(=O)(=O)Nc1ccc(C(=O)Nc2ccc3ccccc3c2)cc1 | inconclusive: 4.11 µM [activator, partial curve] | 
COc1ccc(N(CC(=O)Nc2ccc(C)c(C)c2)S(=O)(=O)c2c(C)n[nH]c2C)cc1 | inconclusive: 25.9 µM [inhibitor, partial curve, poor fit] | 
Nc1nonc1-n1nnc(C(=O)N/N=C/c2ccccc2Cl)c1-c1ccc2c(c1)OCO2 | inconclusive: 29.1 µM [inhibitor, single point] | 
CCOC(=O)Cc1csc(SCn2nnc3ccccc3c2=O)n1 | inactive | 
COc1ccccc1CNC(=O)c1ccc2c(c1)OCO2 | inconclusive: 29.1 µM [activator, single point] | 
O=C(NCC1CCCO1)C(=Cc1cccc([N+](=O)[O-])c1)C(=O)NCC1CCCO1 (stereo unspecified) | inconclusive: 29.1 µM [inhibitor, single point] | 

SMILES | Potency | activity change, negative = inhibition
Oc1ccc(Br)cc1/C=N/n1c(C2CCCCC2)n[nH]c1=S | inconclusive: 29.1 µM [inhibitor, single point] | 
Cc1ccc(NC(=O)COC(=O)CCc2c(C)nc3ncnn3c2C)cc1C | inactive | 
COc1ccc(C(=O)NC2CCN(CC(=O)NCc3ccccc3)CC2)cc1 | inactive | 
Cc1ccc(-c2nn(-c3ccccc3)cc2CN(Cc2ccccc2)C(=O)c2ccco2)o1 | active: 18.4 µM | 
Cc1ccc(S(=O)(=O)/N=C2\C=C(Nc3cccc(C(=O)O)c3)C(=O)c3ccccc32)cc1 | active: 23.1 µM | 
CCN(CC)S(=O)(=O)c1ccc2[nH]c(=O)cc(C(=O)Nc3ccc(C)c(S(=O)(=O)N(CC)CC)c3)c2c1 | active: 18.4 µM | 
CSc1ccccc1NC(=O)Nc1ccccc1 | inconclusive: 13 µM [activator, partial curve] | 
CC(C)C1OC(c2cccc(NC(=O)c3cccs3)c2)OCC1(C)C (stereo unspecified) | inconclusive: 20.6 µM [inhibitor, partial curve, poor fit] | 
O=C(Nc1nc2c(Br)cccc2s1)C1CC1 | inactive | 
COc1cccc(NC(=O)COC(=O)C2CC(=O)N(c3ccc(C)cc3)C2)c1 (stereo unspecified) | inactive | 
COCCN1Cc2cc3cc(C)ccc3nc2SC1=Nc1cccc(OC)c1 | inconclusive: 25.9 µM [inhibitor, single point] | 
COc1ccc(-c2coc3cc(O)cc(O)c3c2=O)cc1OC | inconclusive: 16.4 µM [activator, partial curve] | 
CCc1ccc(C(=O)OCC(=O)N(CC)c2c(N)n(Cc3ccccc3)c(=O)[nH]c2=O)cc1 | inactive | 
CC(=O)Oc1c(-c2ccco2)oc2ccccc2c1=O | inconclusive: 2.31 µM [inhibitor, partial curve, poor fit] | 
COc1ccc(CCn2c(C)cc(C(=O)COC(=O)c3cnccn3)c2C)cc1 | inactive | 
Clc1cc2nc(-c3cccnc3Cl)[nH]c2cc1Cl | inconclusive: 2.31 µM [activator, partial curve] | 
O=C(COC(=O)/C=C/c1ccc(F)cc1)Nc1ccc(Cl)cn1 | inactive | 
O=C(NCc1cccnc1)C1CCCN(Cc2cnn(-c3ccccc3)c2-n2cccc2)C1 (stereo unspecified) |  | inconclusive: 23.2% [activator]
CCOc1ccc(-c2nc3ccccc3c(=O)o2)cc1 | inconclusive: 8.2 µM [activator, partial curve] | 
CCN1CCN(c2cc(SC(C)C)nc(-c3ccc(OC)cc3)n2)CC1 | inactive | 
CCOC(=O)c1[nH]c2cc(OC)c(OC)cc2c1NC(=O)CCN1CCSCC1 | inactive | 
COc1cccc2cc(C(=O)OCC(=O)N3CC(C)OC(C)C3)c(=O)oc12 (stereo unspecified) | inconclusive: 10.3 µM [activator, partial curve] | 
O=C(COC(=O)c1ccc(O)cc1)Nc1ccccc1 | inconclusive: 20.6 µM [activator, partial curve, poor fit] | 

Two neighbouring records from above, quoted:
SMILES | Potency | activity change, negative = inhibition
COc1cccc2cc(C(=O)OCC(=O)N3CC(C)OC(C)C3)c(=O)oc12 (stereo unspecified) | inconclusive: 10.3 µM [activator, partial curve] | 
O=C(COC(=O)c1ccc(O)cc1)Nc1ccccc1 | inconclusive: 20.6 µM [activator, partial curve, poor fit] | 
